Experimental data taken from PubChem BioAssay AID1671190 (National Center for Advancing Translational Sciences (NCATS), 2021).
Values joined by “and” are separate entries in the source; they are usually repeats but may differ in a detail not shown here. Equal entries are not always repeated. Hit rate of the full screen: of about 580,000 compounds, about 6,100 (1.1%) were called active. Inconclusive means that the source gave no clear call. Such entries were picked first, then a sample of the others. The call rests on the fitted dose curve; in most records, active means well fitted inhibition curve with a large enough effect; inconclusive means small, poorly fitted or top-dose-only effect, or another doubt; inactive means no such curve, though single readings can be large or run the other way. Where the call is inconclusive, the potency comes from a doubtful curve fit.

By UniProt entry, the sequences of proteins in these tests, tags left out.
UniProt P18054, whole entry, looked up: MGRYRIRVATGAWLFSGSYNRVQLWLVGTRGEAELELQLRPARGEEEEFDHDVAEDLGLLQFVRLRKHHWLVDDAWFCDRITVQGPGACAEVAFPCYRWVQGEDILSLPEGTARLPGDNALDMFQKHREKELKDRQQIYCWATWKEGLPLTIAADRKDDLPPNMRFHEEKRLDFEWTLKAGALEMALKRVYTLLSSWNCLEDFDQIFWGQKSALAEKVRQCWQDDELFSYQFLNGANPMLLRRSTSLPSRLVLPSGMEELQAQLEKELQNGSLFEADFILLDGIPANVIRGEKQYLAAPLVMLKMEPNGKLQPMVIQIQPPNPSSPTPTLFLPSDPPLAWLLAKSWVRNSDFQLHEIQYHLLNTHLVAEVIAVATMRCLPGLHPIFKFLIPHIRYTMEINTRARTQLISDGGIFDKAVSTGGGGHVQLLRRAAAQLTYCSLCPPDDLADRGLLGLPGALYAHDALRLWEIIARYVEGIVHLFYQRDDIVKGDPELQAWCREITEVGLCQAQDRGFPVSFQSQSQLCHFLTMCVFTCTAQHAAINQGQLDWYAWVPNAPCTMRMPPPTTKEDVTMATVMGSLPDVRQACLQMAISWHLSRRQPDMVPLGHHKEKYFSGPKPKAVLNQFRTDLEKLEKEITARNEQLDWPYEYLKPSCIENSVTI

Target: Polyunsaturated fatty acid lipoxygenase ALOX12 (Homo sapiens) (UniProt P18054)
Assay: Primary qHTS assay for inhibitors of human arachidonate 12S-lipoxygenase (ALOX12): Round 2
Details: purified 12hLO, xylenol orange hydroperoxide absorbance
How it was run: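 Hydroperoxide product was detected by ferrous iron/xylenol orange as the 573 to 405 nm absorbance ratio. Arachidonic acid at 40 uM (final) was turned over for 30 min at room temperature by 150 nM human 12hLO, pH 7.0 Hepes buffer, after 15 min compound preincubation.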

[1] = activity change, negative = inhibition: at 108 µM (top of the series) unless noted
On the % scale 0 is the no-effect control and ±100 the full control effect; potency means the concentration at half of the fitted maximal effect.

COC1CCCN(C(=O)c2cc(-c3ccc(F)cc3)cc3ncn(C)c23)C1 (centres undefined) was tested, and the Potency [1] was inconclusive: 39.8 µM [inhibitor, full curve].
In the case of Fc1ccc(NC(=S)NN=Cc2ccccc2Cl)cc1, the Potency [1] is reported as active: 50.1 µM.
For Cc1ccc(-c2noc(COc3ccccc3C(=O)N3CCN(C(C)C)CC3)n2)cc1, the Potency [1] was “inactive”.
O=C(C[n+]1cccc(C(=O)Nc2ccccc2)c1)c1ccc(Cl)cc1 was tested, and the Potency [1] was inconclusive: 89.1 µM [inhibitor, partial curve, poor fit].
CN(c1ccccc1)c1nc(N)c([N+](=O)[O-])c(Nc2ccccc2F)n1 was tested, and the Potency [1] was “inactive”.
For Cc1[nH]nc2c1C(c1cccc(O)c1)C1=C(CC(C)(C)CC1=O)N2 (centres undefined), the Potency [1] was “inactive”.
OCc1cccc(-c2cc3c(cn2)CN(CCc2ccccc2)CCN3)c1 was tested, and the Potency [1] was inconclusive: 39.8 µM [inhibitor, full curve, poor fit].
For Cc1nc(-c2ccc(S(=O)(=O)N3CCN(C(c4ccccc4)c4ccccc4)CC3)s2)cs1, the Potency [1] was inconclusive: 126 µM [inhibitor, single point].
With Cc1ccc(NC(=O)CCCc2nc3ccccc3o2)cc1C the Potency [1] was “inactive”.
With COc1ccc(CNc2nc(-c3ccc(N(C)C)cc3)nc3ccccc23)c(OC)c1 the Potency [1] was inconclusive: 11.2 µM [inhibitor, partial curve, poor fit].
In the case of CCOCCCn1c(SCC(=O)Nc2ccccc2OC)nc2ccccc2c1=O, the Potency [1] is reported as “inactive”.
With Cc1cc(C(=O)NNC(=O)c2ccccc2O)c(C)o1 the Potency [1] was inconclusive: 112 µM [inhibitor, single point].
With COC(=O)Nc1ccc(S(=O)(=O)Nc2ncccn2)cc1 the Potency [1] was inconclusive: 44.7 µM [inhibitor, partial curve, poor fit].
C#CCOCCOCCOCCNc1nc(N2CCN(C(=O)Cn3cc(CCCN=C(N)N)nn3)CC2)nc(N2CCN(C(=O)[C@H](CCCCN)n3cc(CC(C)O)nn3)CC2)n1 (some centres undefined) was tested, and the Potency [1] was inconclusive: 0.282 µM [inhibitor, full curve, poor fit].
CCN(CC)CCn1c(SCC(=O)Nc2ccc3c(c2)CCC3)nc2ccccc2c1=O was tested, and the Potency [1] was inconclusive: 126 µM [inhibitor, single point].
COc1cc2c(c(OC)c1OC)-c1ccc(OC)c(=O)cc1[C@@H](NC=O)CC2 was tested, and the Potency [1] was inconclusive: 112 µM [inhibitor, partial curve, poor fit].
With C[C@H](CO)N1C[C@H](C)[C@@H](CN(C)C(=O)c2ccncc2)OCc2cn(nn2)CCCC1=O the Potency [1] was inconclusive: 100 µM [inhibitor, single point].
For CCOC(=O)c1[nH]c(C)c(CCC(=O)Nc2ccc(Br)c(C)c2)c1C, the Potency [1] was inconclusive: 56.2 µM [inhibitor, partial curve, poor fit].
With Cc1ccc(NC(=S)NCC(O)c2ccccc2)c(C)c1 (centres undefined) the Potency [1] was inconclusive: 44.7 µM [inhibitor, partial curve, poor fit].
For O=C(/C=C/c1cccs1)NC(=S)Nc1ccccc1, the Potency [1] was inconclusive: 14.1 µM [inhibitor, partial curve, poor fit].
With COc1cc(NS(=O)(=O)c2ccc(F)cc2)c(C(=O)O)cc1OC the Potency [1] was inconclusive: 20 µM [inhibitor, full curve] and inconclusive: 56.2 µM [inhibitor, partial curve, poor fit].
With O=C(CCC(=O)c1cccs1)NCCc1ccc(F)cc1 the Potency [1] was inconclusive: 79.4 µM [inhibitor, partial curve, poor fit].
With Cc1ccc(NC(=O)CCNC(=O)Cn2ccc3ccccc3c2=O)cc1F the Potency [1] was inconclusive: 0.224 µM [inhibitor, full curve, poor fit].
With Cc1ccc(-c2noc(-c3cccs3)n2)cc1 the Potency [1] was “inactive”.
In the case of Cc1nc2cc3nc(C)sc3cc2s1, the Potency [1] is reported as inconclusive: 39.8 µM [inhibitor, partial curve, poor fit].
For O=C(CN1CCN(c2cccc(Cl)c2)CC1)Nc1ccnn1Cc1cccc(Cl)c1, the Potency [1] was “inactive”.
With Cc1ccc(C)c(N2CCN(C(=O)c3ccc(Cn4c(=S)[nH]c5ccc(N6CCOCC6)cc5c4=O)cc3)CC2)c1 the Potency [1] was inconclusive: 79.4 µM [inhibitor, partial curve, poor fit].
With S=C(NCc1ccccc1)NC1CC1 the Potency [1] was inconclusive: 79.4 µM [inhibitor, single point].
For NS(=O)(=O)c1cccc(NC(=O)c2cc3ccccc3o2)c1, the Potency [1] was inconclusive: 56.2 µM [inhibitor, partial curve, poor fit].
N=c1c2c(-c3ccccc3)c(-c3ccccc3)n(Cc3ccccc3)c2ncn1CCO was tested, and the Potency [1] was inconclusive: 100 µM [inhibitor, partial curve, poor fit].
In the case of Cc1nc(NCCOc2ccccc2)sc1C(=O)Nc1ccccc1, the Potency [1] is reported as inconclusive: 35.5 µM [inhibitor, partial curve, poor fit].
CCOc1cc(/C=C2/NC(=O)NC2=O)cc(I)c1OCC(=O)OC was tested, and the Potency [1] was inconclusive: 112 µM [inhibitor, single point].
For O=C(COC(=O)c1cc(S(=O)(=O)N2CCc3ccccc3C2)ccc1Cl)NCc1ccco1, the Potency [1] was “inactive”.
For O=C(NCCSCc1ccccc1)c1ccc(C2SCC(=O)N2Cc2ccccc2)cc1 (centres undefined), the Potency [1] was inconclusive: 50.1 µM [inhibitor, partial curve, poor fit].
In the case of COc1cc(NC(=S)N2CCC(C(O)(c3ccccc3)c3ccccc3)CC2)cc(OC)c1, the Potency [1] is reported as active: 39.8 µM.
With Cc1ccccc1Nc1c(-c2c[nH]c3ccccc23)nc2cccc(C)n12 the Potency [1] was inconclusive: 10 µM [inhibitor, partial curve, poor fit].
In the case of O=C(/C=C/c1ccco1)NC(=S)Nc1ccc(Cl)cn1, the Potency [1] is reported as active: 35.5 µM.
For Cc1ccc(S(=O)(=O)N/N=C/c2cnn(C)c2C)cc1, the Potency [1] was inconclusive: 63.1 µM [inhibitor, partial curve, poor fit].
For O=[N+]([O-])c1ccc(-[n+]2ccc3ccccc3c2)c([N+](=O)[O-])c1, the Potency [1] was inconclusive: 35.5 µM [inhibitor, partial curve, poor fit].
CCOc1ccccc1C(=O)NC12CC3CC(CC(C3)C1)C2 was tested, and the Potency [1] was inconclusive: 89.1 µM [inhibitor, partial curve, poor fit].
In the case of Cc1coc2c1c(C)cc1o/c(=N/O)c3c(c12)CCC3, the Potency [1] is reported as inconclusive: 44.7 µM [inhibitor, partial curve, poor fit].
With COc1ccc(N=Cc2oc3ccc4ccccc4c3c2O)cc1 the Potency [1] was “inactive”.
In the case of CC(NC(=O)c1ccc2c(c1)CC(=O)N2Cc1ccccc1)c1ccc(F)cc1 (centres undefined), the Potency [1] is reported as inconclusive: 35.5 µM [inhibitor, partial curve, poor fit].
For O=C(O)c1cccc(S(=O)(=O)NCC(F)(F)F)c1, the Potency [1] was inconclusive: 0.178 µM [inhibitor, full curve, poor fit].
With COc1ccc(-n2c(=S)[nH]c3cc(C(=O)NCc4ccc(F)cc4)ccc3c2=O)c(OC)c1 the Potency [1] was inconclusive: 79.4 µM [inhibitor, partial curve, poor fit].
In the case of COc1ccc(CCN(C)CCCC(C#N)(c2cc(OC)c(OC)c(OC)c2)C(C)C)cc1OC (centres undefined), the activity change, negative = inhibition [1] is reported as inconclusive: -30.9% [inhibitor] and the activity change, negative = inhibition (at 108 µM (top of the series)) is reported as inactive: -5.82%.
With Clc1ccccc1-c1nc(-n2ccnc2)c2ccccc2n1 the Potency [1] was active: 56.2 µM.
In the case of Cc1noc(C)c1C(=O)N1CCC2(CCCN(C(=O)Nc3cccc(C#N)c3)C2)CC1, the Potency [1] is reported as inconclusive: 35.5 µM [inhibitor, single point].
COc1ccc(-n2ccn(CC(=O)Nc3cccc(F)c3)c2=O)cc1 was tested, and the activity change, negative = inhibition [1] was inconclusive: -31.3% [inhibitor].
With CC1(C(=O)Nc2ccccc2Br)CCN1C(=O)Cc1ccc(Cl)cc1Cl (centres undefined) the Potency [1] was inconclusive: 89.1 µM [inhibitor, partial curve, poor fit].
With CCOC(=O)N1CCN(C(=O)CN(C2CCCCC2)S(=O)(=O)c2c(C)cc(C)cc2C)CC1 the Potency [1] was inconclusive: 79.4 µM [inhibitor, single point].
In the case of COc1ccc2cc(C3NC(=O)c4ccccc4N3)c(Cl)nc2c1 (centres undefined), the Potency [1] is reported as inconclusive: 44.7 µM [inhibitor, partial curve, poor fit].
COc1cc(C(=O)Nc2nc(C)c(C(=O)N(C)C)s2)cc(OC)c1OC was tested, and the Potency [1] was inconclusive: 3.98 µM [inhibitor, full curve, poor fit].
With S=C(NC1CCCCC1)c1ccccc1 the Potency [1] was active: 31.6 µM.
For C/C(=N\O)c1cccs1, the Potency [1] was inconclusive: 141 µM [inhibitor, single point].
In the case of Fc1ccc(-c2cc3nc(-c4ccccc4)cc(N4CCN(CCN5CCOCC5)CC4)n3n2)cc1, the Potency [1] is reported as inconclusive: 50.1 µM [inhibitor, partial curve, poor fit].
COC(CNC(=O)c1cc(S(=O)(=O)N2CCc3ccccc32)ccc1F)OC was tested, and the Potency [1] was “inactive”.
Cc1c(C(=O)O)cccc1-c1ccc(/C=N/Nc2ccc(Br)cc2)o1 was tested, and the Potency [1] was active: 44.7 µM.
CCC(CNC(=O)c1cc(=O)c2ccccc2o1)c1ccccc1 (centres undefined) was tested, and the Potency [1] was “inactive”.
In the case of O=C1CN(C(=O)c2cc(-c3cccnc3)nc3ccccc23)CCN1, the Potency [1] is reported as “inactive”.
Cc1ccc(C)c(OCc2n[nH]c(=S)o2)c1 was tested, and the Potency [1] was inconclusive: 141 µM [inhibitor, single point].
With Clc1cccc(-n2ncc3c(NC4CCCCCC4)ncnc32)c1 the Potency [1] was inconclusive: 56.2 µM [inhibitor, partial curve, poor fit].
In the case of CCOC(=O)c1ccc(NC(=O)CSc2ncc(S(=O)(=O)c3ccc(C)c(Cl)c3)c(=O)[nH]2)cc1, the Potency [1] is reported as inconclusive: 50.1 µM [inhibitor, partial curve, poor fit].
